For four molecules, binding results are on record in article doi:10.1101/2021.04.11.438637.

Sequences of proteins named here, by UniProt entry; tags and fusion partners are left off.
UniProt Q9FKN7: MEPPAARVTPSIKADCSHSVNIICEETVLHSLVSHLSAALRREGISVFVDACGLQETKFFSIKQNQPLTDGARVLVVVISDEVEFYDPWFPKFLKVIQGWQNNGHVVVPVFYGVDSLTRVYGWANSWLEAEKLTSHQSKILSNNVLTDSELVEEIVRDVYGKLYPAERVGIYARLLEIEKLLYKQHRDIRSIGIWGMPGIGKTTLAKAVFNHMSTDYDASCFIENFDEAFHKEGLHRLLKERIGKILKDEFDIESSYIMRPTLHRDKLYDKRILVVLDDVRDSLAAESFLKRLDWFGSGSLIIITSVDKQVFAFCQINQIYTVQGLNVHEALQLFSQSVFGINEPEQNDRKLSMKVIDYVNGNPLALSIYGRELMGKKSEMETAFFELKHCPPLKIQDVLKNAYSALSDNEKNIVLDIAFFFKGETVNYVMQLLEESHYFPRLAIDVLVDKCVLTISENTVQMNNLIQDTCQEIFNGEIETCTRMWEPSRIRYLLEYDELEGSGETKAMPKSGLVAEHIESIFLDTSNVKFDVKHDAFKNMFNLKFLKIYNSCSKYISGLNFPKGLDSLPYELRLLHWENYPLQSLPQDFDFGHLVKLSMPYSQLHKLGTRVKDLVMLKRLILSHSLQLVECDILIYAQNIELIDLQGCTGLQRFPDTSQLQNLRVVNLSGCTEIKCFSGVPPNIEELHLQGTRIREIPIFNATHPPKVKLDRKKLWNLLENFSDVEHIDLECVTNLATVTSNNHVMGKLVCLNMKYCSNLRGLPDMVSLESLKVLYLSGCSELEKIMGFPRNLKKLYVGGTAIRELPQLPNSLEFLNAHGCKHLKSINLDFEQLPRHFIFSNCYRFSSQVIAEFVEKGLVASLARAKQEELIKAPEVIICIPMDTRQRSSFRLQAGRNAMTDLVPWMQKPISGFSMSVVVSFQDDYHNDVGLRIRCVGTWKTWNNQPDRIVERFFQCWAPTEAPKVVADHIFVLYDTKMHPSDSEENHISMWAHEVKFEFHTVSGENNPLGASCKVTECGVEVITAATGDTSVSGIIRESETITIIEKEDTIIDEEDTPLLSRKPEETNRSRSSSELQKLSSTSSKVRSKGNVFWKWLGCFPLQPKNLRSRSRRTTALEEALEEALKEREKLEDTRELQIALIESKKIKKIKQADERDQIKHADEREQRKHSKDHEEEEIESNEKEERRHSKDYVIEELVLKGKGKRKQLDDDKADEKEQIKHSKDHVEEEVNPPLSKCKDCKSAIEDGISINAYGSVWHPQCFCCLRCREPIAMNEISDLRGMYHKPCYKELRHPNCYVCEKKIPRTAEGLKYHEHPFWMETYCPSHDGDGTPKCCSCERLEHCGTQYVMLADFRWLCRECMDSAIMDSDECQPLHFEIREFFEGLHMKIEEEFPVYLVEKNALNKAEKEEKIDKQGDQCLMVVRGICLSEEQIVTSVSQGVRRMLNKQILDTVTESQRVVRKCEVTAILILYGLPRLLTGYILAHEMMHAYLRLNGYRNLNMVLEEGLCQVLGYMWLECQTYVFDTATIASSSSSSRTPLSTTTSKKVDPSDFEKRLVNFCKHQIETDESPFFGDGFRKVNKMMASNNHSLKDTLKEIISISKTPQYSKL

The target of assay [1] is T1, BIR2-YFP (Arabidopsis thaliana) (UniProt Q9LSI9).
T1 sequence: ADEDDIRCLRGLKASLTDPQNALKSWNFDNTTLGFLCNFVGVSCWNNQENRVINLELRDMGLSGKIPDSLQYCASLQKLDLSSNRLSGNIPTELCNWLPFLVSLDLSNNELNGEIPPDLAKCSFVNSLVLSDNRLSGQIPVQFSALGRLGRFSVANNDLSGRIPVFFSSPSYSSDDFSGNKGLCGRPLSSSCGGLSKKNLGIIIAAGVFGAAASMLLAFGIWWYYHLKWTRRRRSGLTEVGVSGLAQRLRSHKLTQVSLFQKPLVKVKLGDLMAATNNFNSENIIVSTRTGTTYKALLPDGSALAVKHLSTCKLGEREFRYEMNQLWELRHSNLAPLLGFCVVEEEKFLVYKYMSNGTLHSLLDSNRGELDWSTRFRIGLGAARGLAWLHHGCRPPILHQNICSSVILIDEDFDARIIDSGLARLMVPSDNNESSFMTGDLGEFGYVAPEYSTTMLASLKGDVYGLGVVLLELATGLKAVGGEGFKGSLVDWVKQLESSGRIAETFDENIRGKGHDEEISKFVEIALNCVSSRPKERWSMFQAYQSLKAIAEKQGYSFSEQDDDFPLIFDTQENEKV
The assay is described as follows: co-IP.

Assay [2] has as its target T1, BIR2-YFP (Arabidopsis thaliana). The assay is described as follows: co-IP. The source holds these as a separate data set.
The target of assay [3] is T2, BAK1-Nluc (Arabidopsis thaliana) (UniProt Q94F62).
T2 sequence: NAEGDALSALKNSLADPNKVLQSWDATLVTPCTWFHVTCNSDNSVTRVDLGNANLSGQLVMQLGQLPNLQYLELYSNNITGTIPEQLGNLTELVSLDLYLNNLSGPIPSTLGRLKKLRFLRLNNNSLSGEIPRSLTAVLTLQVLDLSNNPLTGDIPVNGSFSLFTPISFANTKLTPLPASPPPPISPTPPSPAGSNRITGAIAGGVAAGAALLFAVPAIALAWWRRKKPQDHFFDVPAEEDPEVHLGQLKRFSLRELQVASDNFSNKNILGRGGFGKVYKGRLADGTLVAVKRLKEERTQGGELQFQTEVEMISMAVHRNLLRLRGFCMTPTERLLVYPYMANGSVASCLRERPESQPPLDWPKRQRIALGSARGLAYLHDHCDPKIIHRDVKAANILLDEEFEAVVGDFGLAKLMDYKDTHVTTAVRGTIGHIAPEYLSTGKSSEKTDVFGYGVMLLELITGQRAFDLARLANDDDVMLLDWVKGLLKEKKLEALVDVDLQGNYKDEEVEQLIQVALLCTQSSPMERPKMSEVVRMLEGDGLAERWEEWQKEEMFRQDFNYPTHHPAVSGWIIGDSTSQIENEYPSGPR
Kind of assay: split reporter.

The target of assay [4] is T3, BAK1, split-ubiquitin fusion (Arabidopsis thaliana) (UniProt Q94F62).
T3 sequence: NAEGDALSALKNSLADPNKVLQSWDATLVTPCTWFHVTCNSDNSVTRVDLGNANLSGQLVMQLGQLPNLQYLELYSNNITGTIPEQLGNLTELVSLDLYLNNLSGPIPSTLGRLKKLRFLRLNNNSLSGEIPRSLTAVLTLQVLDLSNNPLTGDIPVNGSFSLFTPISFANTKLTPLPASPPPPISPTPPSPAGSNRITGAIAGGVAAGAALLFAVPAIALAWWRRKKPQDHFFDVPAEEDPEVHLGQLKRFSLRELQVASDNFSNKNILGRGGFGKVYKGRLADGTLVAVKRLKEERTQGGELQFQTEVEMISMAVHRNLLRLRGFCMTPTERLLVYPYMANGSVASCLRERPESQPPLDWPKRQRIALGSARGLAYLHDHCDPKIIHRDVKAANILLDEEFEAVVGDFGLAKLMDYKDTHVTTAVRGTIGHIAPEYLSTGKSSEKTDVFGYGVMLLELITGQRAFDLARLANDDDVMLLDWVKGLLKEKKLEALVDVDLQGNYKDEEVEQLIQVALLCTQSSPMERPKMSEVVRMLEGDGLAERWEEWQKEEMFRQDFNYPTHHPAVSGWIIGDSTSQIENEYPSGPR
The assay is described as follows: two-hybrid.

Where two headings read alike, the source gives them in different places. These are yes or no findings as the source states them, for the method shown. For some of these results: In cells and extracts the contact can be indirect. Some binding calls cover weakened binding; strength is not graded here. Where a sequence is shown, tags or fusion partners need not be part of it.

For the molecule CHS3-V5 (from UniProt Q9FKN7 1-1613), in assay [1], the binding entry is “binds”.

B1: CSA1-V5 (protein, UniProt F4KIF3 1-1197)
chain: MTSSSSWVKTDGETPQDQVFINFRGVELRKNFVSHLEKGLKRKGINAFIDTDEEMGQELSVLLERIEGSRIALAIFSPRYTESKWCLKELAKMKERTEQKELVVIPIFYKVQPVTVKELKGDFGDKFRELVKSTDKKTKKEWKEALQYVPFLTGIVLDEKSDEDEVINIIIRKVKEILNRRSEGPPSKCSALPPQRHQKRHETFWGIELRIKQLEEKLRFGSDETTRTIGVVGMPGIGKTTLATMLYEKWNDRFLRHVLIRDIHEASEEDGLNYLATKFLQGLLKVENANIESVQAAHEAYKDQLLETKVLVILDNVSNKDQVDALLGERNWIKKGSKILITTSDKSLMIQSLVNDTYEVPPLSDKDAIKHFIRYAFDGNEGAAPGPGQGNFPKLSKDFVHYTKGNPLALQMLGKELLGKDESHWGLKLNALDQHHNSPPGQSICKMLQRVWEGSYKALSQKEKDALLDIACFRSQDENYVASLLDSDGPSNILEDLVNKFMINIYAGKVDMHDTLYMLSKELGREATATDRKGRHRLWHHHTIIAVLDKNKGGSNIRSIFLDLSDITRKWCFYRHAFAMMRDLRYLKIYSTHCPQECESDIKLNFPEGLLLPLNEVRYLHWLKFPLKEVPQDFNPGNLVDLKLPYSEIERVWEDNKDAPKLKWVNLNHSKKLNTLAGLGKAQNLQELNLEGCTALKEMHVDMENMKFLVFLNLRGCTSLKSLPEIQLISLKTLILSGCSKFKTFQVISDKLEALYLDGTAIKELPCDIGRLQRLVMLNMKGCKKLKRLPDSLGQLKALEELILSGCSKLNEFPETWGNMSRLEILLLDETAIKDMPKILSVRRLCLNKNEKISRLPDLLNKFSQLQWLHLKYCKNLTHVPQLPPNLQYLNVHGCSSLKTVAKPLVCSIPMKHVNSSFIFTNCNELEQAAKEEIVVYAERKCHLLASALKRCDESCVPEILFCTSFPGCEMPSWFSHDAIGSMVEFELPPHWNHNRLSGIALCVVVSFKNCKSHANLIVKFSCEQNNGEGSSSSITWKVGSLIEQDNQEETVESDHVFIGYTNCLDFIKLVKGQGGPKCAPTKASLEFSVRTGTGGEATLEVLKSGFSFVFEPEENRVPSPRNDDVKGKVKINKTPSANGCFKDQAKGNESPKGQWQTYIENSSTNIPSEAHSSQKTGFNGFNGMYSVCVLYEMYSH
For B1, the binding entry in assay [2] is “binds”.

B2: CSA1-Cluc (protein, UniProt F4KIF3 1-1197)
chain: MTSSSSWVKTDGETPQDQVFINFRGVELRKNFVSHLEKGLKRKGINAFIDTDEEMGQELSVLLERIEGSRIALAIFSPRYTESKWCLKELAKMKERTEQKELVVIPIFYKVQPVTVKELKGDFGDKFRELVKSTDKKTKKEWKEALQYVPFLTGIVLDEKSDEDEVINIIIRKVKEILNRRSEGPPSKCSALPPQRHQKRHETFWGIELRIKQLEEKLRFGSDETTRTIGVVGMPGIGKTTLATMLYEKWNDRFLRHVLIRDIHEASEEDGLNYLATKFLQGLLKVENANIESVQAAHEAYKDQLLETKVLVILDNVSNKDQVDALLGERNWIKKGSKILITTSDKSLMIQSLVNDTYEVPPLSDKDAIKHFIRYAFDGNEGAAPGPGQGNFPKLSKDFVHYTKGNPLALQMLGKELLGKDESHWGLKLNALDQHHNSPPGQSICKMLQRVWEGSYKALSQKEKDALLDIACFRSQDENYVASLLDSDGPSNILEDLVNKFMINIYAGKVDMHDTLYMLSKELGREATATDRKGRHRLWHHHTIIAVLDKNKGGSNIRSIFLDLSDITRKWCFYRHAFAMMRDLRYLKIYSTHCPQECESDIKLNFPEGLLLPLNEVRYLHWLKFPLKEVPQDFNPGNLVDLKLPYSEIERVWEDNKDAPKLKWVNLNHSKKLNTLAGLGKAQNLQELNLEGCTALKEMHVDMENMKFLVFLNLRGCTSLKSLPEIQLISLKTLILSGCSKFKTFQVISDKLEALYLDGTAIKELPCDIGRLQRLVMLNMKGCKKLKRLPDSLGQLKALEELILSGCSKLNEFPETWGNMSRLEILLLDETAIKDMPKILSVRRLCLNKNEKISRLPDLLNKFSQLQWLHLKYCKNLTHVPQLPPNLQYLNVHGCSSLKTVAKPLVCSIPMKHVNSSFIFTNCNELEQAAKEEIVVYAERKCHLLASALKRCDESCVPEILFCTSFPGCEMPSWFSHDAIGSMVEFELPPHWNHNRLSGIALCVVVSFKNCKSHANLIVKFSCEQNNGEGSSSSITWKVGSLIEQDNQEETVESDHVFIGYTNCLDFIKLVKGQGGPKCAPTKASLEFSVRTGTGGEATLEVLKSGFSFVFEPEENRVPSPRNDDVKGKVKINKTPSANGCFKDQAKGNESPKGQWQTYIENSSTNIPSEAHSSQKTGFNGFNGMYSVCVLYEMYSH
In the case of B2, in assay [3], the binding entry was “no binding”.

B3: CSA1, split-ubiquitin fusion (protein, UniProt F4KIF3 1-1197)
chain: MTSSSSWVKTDGETPQDQVFINFRGVELRKNFVSHLEKGLKRKGINAFIDTDEEMGQELSVLLERIEGSRIALAIFSPRYTESKWCLKELAKMKERTEQKELVVIPIFYKVQPVTVKELKGDFGDKFRELVKSTDKKTKKEWKEALQYVPFLTGIVLDEKSDEDEVINIIIRKVKEILNRRSEGPPSKCSALPPQRHQKRHETFWGIELRIKQLEEKLRFGSDETTRTIGVVGMPGIGKTTLATMLYEKWNDRFLRHVLIRDIHEASEEDGLNYLATKFLQGLLKVENANIESVQAAHEAYKDQLLETKVLVILDNVSNKDQVDALLGERNWIKKGSKILITTSDKSLMIQSLVNDTYEVPPLSDKDAIKHFIRYAFDGNEGAAPGPGQGNFPKLSKDFVHYTKGNPLALQMLGKELLGKDESHWGLKLNALDQHHNSPPGQSICKMLQRVWEGSYKALSQKEKDALLDIACFRSQDENYVASLLDSDGPSNILEDLVNKFMINIYAGKVDMHDTLYMLSKELGREATATDRKGRHRLWHHHTIIAVLDKNKGGSNIRSIFLDLSDITRKWCFYRHAFAMMRDLRYLKIYSTHCPQECESDIKLNFPEGLLLPLNEVRYLHWLKFPLKEVPQDFNPGNLVDLKLPYSEIERVWEDNKDAPKLKWVNLNHSKKLNTLAGLGKAQNLQELNLEGCTALKEMHVDMENMKFLVFLNLRGCTSLKSLPEIQLISLKTLILSGCSKFKTFQVISDKLEALYLDGTAIKELPCDIGRLQRLVMLNMKGCKKLKRLPDSLGQLKALEELILSGCSKLNEFPETWGNMSRLEILLLDETAIKDMPKILSVRRLCLNKNEKISRLPDLLNKFSQLQWLHLKYCKNLTHVPQLPPNLQYLNVHGCSSLKTVAKPLVCSIPMKHVNSSFIFTNCNELEQAAKEEIVVYAERKCHLLASALKRCDESCVPEILFCTSFPGCEMPSWFSHDAIGSMVEFELPPHWNHNRLSGIALCVVVSFKNCKSHANLIVKFSCEQNNGEGSSSSITWKVGSLIEQDNQEETVESDHVFIGYTNCLDFIKLVKGQGGPKCAPTKASLEFSVRTGTGGEATLEVLKSGFSFVFEPEENRVPSPRNDDVKGKVKINKTPSANGCFKDQAKGNESPKGQWQTYIENSSTNIPSEAHSSQKTGFNGFNGMYSVCVLYEMYSH
As for B3, the binding entry in assay [4] is recorded as “no binding”.
